Data: ChEMBL document CHEMBL4190215, “Ochracenes A-I, Humulane-Derived Sesquiterpenoids from the Antarctic Fungus Aspergillus ochraceopetaliformis” (J Nat Prod, 2017)

System: A549
Assay: Cytotoxicity against human A549 cells assessed as reduction in cell viability after 72 hrs by CCK-8 assay
Type: functional, cell-based
Conditions: A549, 72 h

CC(=O)O[C@H]1C(=O)[C@@]2(C)[C@H]([C@H](OC(=O)c3ccccc3)[C@]3(O)C[C@H](OC(=O)[C@H](O)[C@@H](NC(=O)c4ccccc4)c4ccccc4)C(C)=C1C3(C)C)[C@]1(OC(C)=O)CO[C@@H]1C[C@@H]2O [PACLITAXEL]
IC50: 2.1 nM
